Laboratory results reported in patent US4987122A (Nycomed AS, priority 1986, dated 1991).

Experiments:
peptide synthesis = details: for step yield: coupling step
[1] = general procedure: Fmoc solid-phase peptide synthesis in flow; SASRIN resin (Bachem), preloaded with Fmoc amino acid; Fmoc amino acid OPFP esters, pGlu-OPCLP, HOBT as catalyst; details: whole synthesis, 214 nm, one disulfide bridge, sequence written open

(Fmoc-Glu(γ-OtBu)-Asp(β-OtBu)-Cys-Lvs(Nε-Boc)-OtBu)2
step yield (peptide synthesis): 77%

(Glu-Asp-Cys-Lys)2
final HPLC purity (peptide synthesis; late stage modification step, 214 nm, one disulfide bridge, sequence written open): 100%

(pGlu-Asp-Asp-Cys-Lys)b 2
final HPLC purity [1]: 100%

(pGlu-Glu(γ-OtBu)-Asp(β-OtBu)-Cys-Lys(Nε-Boc)-OtBu)2
step yield (peptide synthesis): 59%

(pGlu-Glu-Cys-Lys)2
final HPLC purity ([1]; run 1): 100%

The same purity stands for every peptide and may come from a single statement.
